We go through one molecule from ChEMBL document CHEMBL5338817, “Discovery of Exceptionally Potent, Selective, and Efficacious PROTAC Degraders of CBP and p300 Proteins” (J Med Chem, 2023).

Amino acid sequences for entries named in this document (tags omitted).
UniProt Q09472, whole entry: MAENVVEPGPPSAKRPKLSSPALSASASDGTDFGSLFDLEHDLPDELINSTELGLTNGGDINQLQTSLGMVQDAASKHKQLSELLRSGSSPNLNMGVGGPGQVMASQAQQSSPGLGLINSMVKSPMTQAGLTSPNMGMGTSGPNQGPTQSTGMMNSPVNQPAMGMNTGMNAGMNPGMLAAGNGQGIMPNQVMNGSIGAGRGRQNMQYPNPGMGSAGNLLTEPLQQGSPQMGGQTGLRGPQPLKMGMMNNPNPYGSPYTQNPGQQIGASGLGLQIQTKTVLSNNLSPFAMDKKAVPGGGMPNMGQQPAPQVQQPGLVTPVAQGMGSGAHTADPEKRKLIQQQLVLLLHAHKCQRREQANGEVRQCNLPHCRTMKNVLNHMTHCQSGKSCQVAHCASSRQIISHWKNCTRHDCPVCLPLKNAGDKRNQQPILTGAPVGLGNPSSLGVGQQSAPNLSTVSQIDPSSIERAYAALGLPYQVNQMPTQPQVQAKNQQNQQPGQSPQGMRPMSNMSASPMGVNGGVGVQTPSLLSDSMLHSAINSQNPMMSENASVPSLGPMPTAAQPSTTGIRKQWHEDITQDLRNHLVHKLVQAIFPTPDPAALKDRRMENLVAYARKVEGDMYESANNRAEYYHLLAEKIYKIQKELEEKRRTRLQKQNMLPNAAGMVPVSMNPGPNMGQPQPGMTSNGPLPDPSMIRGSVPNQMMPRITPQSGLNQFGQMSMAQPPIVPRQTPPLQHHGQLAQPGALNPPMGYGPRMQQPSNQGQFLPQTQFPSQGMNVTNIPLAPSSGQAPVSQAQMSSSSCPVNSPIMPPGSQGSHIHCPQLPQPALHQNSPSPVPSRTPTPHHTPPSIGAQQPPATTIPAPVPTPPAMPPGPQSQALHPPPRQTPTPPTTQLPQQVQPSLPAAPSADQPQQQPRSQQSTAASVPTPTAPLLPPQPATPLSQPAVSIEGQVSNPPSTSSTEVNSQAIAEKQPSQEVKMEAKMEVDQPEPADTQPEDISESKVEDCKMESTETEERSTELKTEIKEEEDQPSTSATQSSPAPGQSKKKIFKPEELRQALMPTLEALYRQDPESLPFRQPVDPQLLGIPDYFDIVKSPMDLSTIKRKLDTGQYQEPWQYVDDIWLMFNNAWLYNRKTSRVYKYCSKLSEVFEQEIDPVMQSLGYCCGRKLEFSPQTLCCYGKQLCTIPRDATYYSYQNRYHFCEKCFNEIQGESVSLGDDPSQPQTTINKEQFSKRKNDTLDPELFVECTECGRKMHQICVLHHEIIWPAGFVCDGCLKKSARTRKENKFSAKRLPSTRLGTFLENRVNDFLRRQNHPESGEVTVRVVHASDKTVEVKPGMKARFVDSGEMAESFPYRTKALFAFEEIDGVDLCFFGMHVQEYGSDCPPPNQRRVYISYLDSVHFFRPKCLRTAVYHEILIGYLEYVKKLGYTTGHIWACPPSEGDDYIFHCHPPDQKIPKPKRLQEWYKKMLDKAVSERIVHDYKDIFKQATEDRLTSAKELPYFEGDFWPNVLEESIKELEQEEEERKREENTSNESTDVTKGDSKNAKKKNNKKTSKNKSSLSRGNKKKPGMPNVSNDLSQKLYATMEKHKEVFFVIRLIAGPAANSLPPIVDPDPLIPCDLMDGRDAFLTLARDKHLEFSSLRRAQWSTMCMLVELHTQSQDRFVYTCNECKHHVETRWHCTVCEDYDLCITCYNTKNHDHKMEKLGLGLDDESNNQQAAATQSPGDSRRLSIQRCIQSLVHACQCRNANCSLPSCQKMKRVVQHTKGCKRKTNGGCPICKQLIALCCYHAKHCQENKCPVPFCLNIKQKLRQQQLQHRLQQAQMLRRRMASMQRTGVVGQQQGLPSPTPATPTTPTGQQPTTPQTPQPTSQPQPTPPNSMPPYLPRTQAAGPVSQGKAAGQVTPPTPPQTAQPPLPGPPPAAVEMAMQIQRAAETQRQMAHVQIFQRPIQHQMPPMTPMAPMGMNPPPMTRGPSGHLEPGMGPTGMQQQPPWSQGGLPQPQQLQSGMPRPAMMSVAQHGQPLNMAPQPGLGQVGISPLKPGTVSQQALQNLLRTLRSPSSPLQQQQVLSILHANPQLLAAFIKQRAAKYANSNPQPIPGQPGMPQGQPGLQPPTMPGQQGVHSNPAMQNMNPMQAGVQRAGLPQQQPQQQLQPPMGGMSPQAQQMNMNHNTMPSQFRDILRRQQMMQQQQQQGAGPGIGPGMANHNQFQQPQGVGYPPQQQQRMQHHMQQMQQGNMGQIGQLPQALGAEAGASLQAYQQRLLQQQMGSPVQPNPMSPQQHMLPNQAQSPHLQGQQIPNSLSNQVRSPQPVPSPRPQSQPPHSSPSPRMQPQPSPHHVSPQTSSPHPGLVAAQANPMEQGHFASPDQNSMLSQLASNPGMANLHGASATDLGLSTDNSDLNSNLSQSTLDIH

Activity calls are given as the source filed them. The rule behind the calls is not given here.

The target in the test is Histone acetyltransferase p300 (Homo sapiens, UniProt Q09472). As to the kind of experiment: Induction of p300 degradation in human RS4-11 cells at 1 uM incubated for 3 hrs by Proteomics analysis. The format is cell-based.

Regarding `CNC(=O)c1ccc(-c2cc3cccc(-c4nn(C5CCOCC5)c5c4CN(C(C)=O)CC5)c3cn2)cn1`, the outcome was inactive.
